Reference: publication PMC12431657, “Discovery and mechanistic insights of dibenzoylmethane as a broad spectrum inhibitor of coronavirus” (PLOS Pathogens, 2025)
Structures can show the parent of a compound that is named as a salt. Where two headings read alike, the source gives them in different places. Out of some 3,300 compounds screened, about 60 (2%) showed an effect of 50% or more. The list shows a part of the results.

Test system: HCoV-OC43
Design: species or system RD; HTS, protection from HCoV-OC43 induced cell death, luminescent cell viability (CellCounting-Lite 2.0), inhibition rate

In the case of `COc1cc2occc2c2oc(=O)ccc12` [Isobergapten], the “OC43 Inhibition rate” value (24 h, 10 µM; inhibitor) is reported as 1%.

For `CCCCCCCCC(=O)NCc1ccc(O)c(OC)c1` [Nonivamide], the “OC43 Inhibition rate” value (24 h, 10 µM; inhibitor) was 0.

In the case of `C=Cc1cc(O)cc2ccc3c(C)c(O)ccc3c12` [Dehydroeffusol], the “OC43 Inhibition rate” value (24 h, 10 µM; inhibitor) is reported as 20%.

`CC(=O)/C=C/c1ccccc1` [Benzylideneacetone] was tested, and the “OC43 Inhibition rate” value (24 h, 10 µM, inhibitor) was -0.8%.

`COC[C@]12CN(C)C3[C@@H]4[C@H](OC)[C@H]1[C@@]3([C@@H](OC)C[C@H]2O)[C@@H]1C[C@@]2(O)[C@H](OC(=O)c3ccccc3)[C@@H]1[C@]4(O)[C@@H](O)[C@@H]2OC` [Benzoylmesaconine] was tested, and the “OC43 Inhibition rate” value (24 h, 10 µM; inhibitor) was 1.5%.

In the case of `COC1=CC(=O)O[C@@H](/C=C/c2ccccc2)C1` [Kavain], the “OC43 Inhibition rate” value (24 h, 10 µM, inhibitor) is reported as 0%.

In the case of `CC(C)[C@@H]1[C@H]2OC(=O)[C@@H]1[C@@H]1CC[C@@H]3CN(C)[C@H]2[C@@]31C` [Dendrobine], the “OC43 Inhibition rate” value (24 h, 10 µM; inhibitor) is reported as -0.3%.

`CC(C)(C)[C@]1(O)C[C@@H]2OC(=O)C[C@@]23C(=O)O[C@@H]2OC(=O)[C@H](O)[C@]213` [Bilobalide] was tested, and the “OC43 Inhibition rate” value (24 h, 10 µM; inhibitor) was 0%.

With `C[C@]12CC[C@H](O)C[C@H]1CC[C@@H]1[C@@H]2C(=O)[C@H](O)[C@]2(C)[C@@H](c3ccc(=O)oc3)CC[C@]12O` [Pseudobufarenogin] the “OC43 Inhibition rate” value (24 h, 10 µM; inhibitor) was 25.2%.

For `NC(=O)[C@H](Cc1ccccc1)NC(=O)[C@H](Cc1c[nH]c2ccccc12)NC(=O)[C@@H]1CCCN1C(=O)[C@@H](N)Cc1ccc(O)cc1` [Endomorphin 1], the “OC43 Inhibition rate” value (24 h, 10 µM; inhibitor) was -4.1%.

For `COc1cc(OC)c(OC)cc1C=O` [Asaraldehyde], the “OC43 Inhibition rate” value (24 h, 10 µM; inhibitor) was -0.4%.

In the case of `COC1=CC(=O)O[C@@H](/C=C/c2ccccc2)C1` [(+)-Kavain], the “OC43 Inhibition rate” value (24 h, 10 µM, inhibitor) is reported as -0.4%.

With `COc1c(O)cc2c3c1-c1ccccc1C[C@H]3N(C)CC2` [O-Nornuciferine] the “OC43 Inhibition rate” value (24 h, 10 µM; inhibitor) was 2.7%.

With `CC1=CC(=O)[C@@H](O)[C@]2(C)[C@H]3[C@@H](O)[C@H](O)[C@]4(CO)OC[C@@]35[C@@H](C[C@@H]12)OC(=O)[C@H](O)[C@]54O` [Yadanziolide A] the “OC43 Inhibition rate” value (24 h, 10 µM; inhibitor) was 17.1%.

`C[C@]12CC[C@H](O)C[C@H]1CC[C@@H]1[C@@H]2[C@H](O)C(=O)[C@]2(C)[C@@H](c3ccc(=O)oc3)CC[C@]12O` [Arenobufagin] was tested, and the “OC43 Inhibition rate” value (24 h, 10 µM; inhibitor) was 0.4%.

`COC[C@]12CN(C)[C@@H]3[C@@H]4[C@H](OC)[C@H]1[C@@]3([C@@H](OC)C[C@H]2O)[C@@H]1C[C@@]2(O)[C@H](OC(=O)c3ccccc3)[C@@H]1[C@]4(OC(C)=O)[C@@H](O)[C@@H]2OC` [Mesaconitine] was tested, and the “OC43 Inhibition rate” value (24 h, 10 µM; inhibitor) was -0.3%.

In the case of `C[C@H]1CC[C@@H]2N(C1)C[C@H]1[C@@H]3C[C@H]4[C@@H](C[C@H](O)[C@H]5C[C@@H](O)CC[C@@]54C)[C@@H]3CC[C@@H]1[C@]2(C)O` [Peimine], the “OC43 Inhibition rate” value (24 h, 10 µM; inhibitor) is reported as -0.4%.

With `CCCCC/C=C/C/C=C/CCCCCCCC(=O)O[C@H](COC(=O)CCCCCCCCCCCCCCC)COP(=O)([O-])OCC[N+](C)(C)C` [Lecithin] the “OC43 Inhibition rate” value (24 h, 10 µM; inhibitor) was -0.3.

In the case of `COc1cc2c(cc1O)C[C@@H]1NCCc3cc(O)c(OC)c-2c31` [Laurolitsine (hydrochloride)], the “OC43 Inhibition rate” value (24 h, 10 µM; inhibitor) is reported as -0.3%.

In the case of `C[C@H](O)c1ccccc1` [(S)-(-)-Phenylethanol], the “OC43 Inhibition rate” value (24 h, 10 µM; inhibitor) is reported as 0.2.

`NC(=O)Cc1ccccc1` [2-Phenylacetamide] was tested, and the “OC43 Inhibition rate” value (24 h, 10 µM; inhibitor) was -1.1%.

`CN1[C@@H]2CC[C@H]1CC(O)C2` (stereo partly shown) [Tropine] was tested, and the “OC43 Inhibition rate” value (24 h, 10 µM; inhibitor) was -1.9%.

In the case of `COC(=O)[C@]12OC[C@]34[C@H]([C@@H](O)[C@@H]1O)[C@@]1(C)CC(=O)C(O)=C(C)[C@@H]1C[C@H]3OC(=O)[C@H](OC(=O)/C=C(\C)C(C)(C)OC(C)=O)[C@@H]24` [Bruceantinol], the “OC43 Inhibition rate” value (24 h, 10 µM; inhibitor) is reported as -6%.

With `O=C1C=CC(=O)c2c(O)ccc(O)c21` [Naphthazarin] the “OC43 Inhibition rate” value (24 h, 10 µM; inhibitor) was 0.2%.

`CCCCCc1cc(O)cc(O)c1` [Olivetol] was tested, and the “OC43 Inhibition rate” value (24 h, 10 µM; inhibitor) was 3.2%.

With `CCN1C[C@]2(COC)[C@H](O)C[C@H](OC)[C@]34C1[C@H]([C@H](OC)[C@H]23)[C@]1(O)[C@H]2[C@@H](O)[C@](O)(C[C@H]24)[C@@H](OC)[C@@H]1O` [Aconine] the “OC43 Inhibition rate” value (24 h, 10 µM; inhibitor) was 0.1%.

In the case of `CCN1C[C@]2(COC)[C@H](O)C[C@H](OC)[C@@]34[C@@H]5C[C@@]6(O)[C@H](OC(=O)c7ccccc7)[C@@H]5[C@@](O)([C@@H]([C@H](OC)[C@H]23)[C@@H]14)[C@@H](O)[C@@H]6OC` [Benzoylaconine], the “OC43 Inhibition rate” value (24 h, 10 µM; inhibitor) is reported as 0.2%.

`CCCCOC(=O)c1ccccc1C(=O)OCC(C)C` [Butyl isobutyl phthalate] was tested, and the “OC43 Inhibition rate” value (24 h, 10 µM; inhibitor) was -0.4%.

For `COc1cc([C@@H]2c3cc4c(cc3C(=O)[C@H]3COC(=O)[C@H]23)OCO4)cc(OC)c1OC` [Podophyllotoxone], the “OC43 Inhibition rate” value (24 h, 10 µM; inhibitor) was 4.4%.

For `CCN1C[C@]2(COC)CC[C@H](OC)[C@]34C1[C@H]([C@H](OC)[C@H]23)[C@@]1(OC(C)=O)C[C@H](OC)[C@@]2(O)C[C@@H]4[C@@H]1[C@H]2OC(=O)c1ccc(OC)cc1` [Crassicauline A], the “OC43 Inhibition rate” value (24 h, 10 µM; inhibitor) was 2.9%.

For `C=C1C/C(=C/C)C(=O)O[C@@H]2CCN3CC=C(COC(=O)[C@]1(C)O)[C@H]23` [Seneciphylline], the “OC43 Inhibition rate” value (24 h, 10 µM; inhibitor) was -0.4.

For `CO[C@@H]1C[C@H](O[C@H]2CC[C@@]3(C)[C@H](CC[C@@]45O[C@@]46CC[C@H](C4=CC(=O)OC4)[C@@]6(C)CC[C@H]35)C2)O[C@H](C)[C@@H]1O` [Adynerin], the “OC43 Inhibition rate” value (24 h, 10 µM; inhibitor) was 0.7%.

`COC(=O)C[C@](O)(CCC(C)(C)O)C(=O)O[C@@H]1C(OC)=C[C@]23CCCN2CCc2cc4c(cc2[C@H]13)OCO4` [Harringtonine] was tested, and the “OC43 Inhibition rate” value (24 h, 10 µM; inhibitor) was 3.4%.

In the case of `O=C(O)CC[N+](=O)[O-]` [3-Nitropropanoic acid], the “OC43 Inhibition rate” value (24 h, 10 µM; inhibitor) is reported as -0.1%.

For `O=[N+]([O-])c1ncc[nH]1` [Azomycin], the “OC43 Inhibition rate” value (24 h, 10 µM; inhibitor) was 1.1%.

`CO[C@H]1C[C@H](O[C@H]2CC[C@]3(C)[C@H]4CC[C@]5(C)[C@@H](C6=CC(=O)OC6)CC[C@]5(O)[C@@H]4CC[C@]3(O)C2)O[C@H](C)[C@H]1O[C@@H]1O[C@H](CO)[C@@H](O)[C@H](O)[C@H]1O` [Periplocin] was tested, and the “OC43 Inhibition rate” value (24 h, 10 µM; inhibitor) was 14.6.

`COC1c2c(ccc3c2OCO3)-c2ccc3cc4c(cc3c2N1C)OCO4` (stereo not shown) [6-Methoxydihydrosanguinarine] was tested, and the “OC43 Inhibition rate” value (24 h, 10 µM; inhibitor) was -2.9%.
